Measurements published in patent US7790845B2, “Bacterial ion channel” (Children's Medical Center Corporation, priority 2001, dated 2010).
For at least one compound, name, drawing or mass did not settle the structure.

Protein sequences, listed by entry. Tags and fused reporters are not part of them. Residues count along the entry.
UniProt Q9KCR8, 1-274 S273L: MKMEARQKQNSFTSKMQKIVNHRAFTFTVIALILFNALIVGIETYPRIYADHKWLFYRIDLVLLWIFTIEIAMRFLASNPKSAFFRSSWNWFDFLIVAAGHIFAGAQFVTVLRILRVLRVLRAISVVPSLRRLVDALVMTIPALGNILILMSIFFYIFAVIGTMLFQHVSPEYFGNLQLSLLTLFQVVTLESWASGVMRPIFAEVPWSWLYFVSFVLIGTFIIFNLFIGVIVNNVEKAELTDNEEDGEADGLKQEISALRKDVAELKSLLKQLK

Molecular target: NaChBac (Halalkalibacterium halodurans (Bacillus halodurans), UniProt Q9KCR8, S273L)
Type: cell-based

SMILES: COCCOC(=O)C1=C(C)NC(C)=C(C(=O)OC(C)C)C1c1cccc([N+](=O)[O-])c1 (stereo not shown) [nimodipine]
- sensitivity of INaChBac to the blocker (figure legend): sensitive
